Where a name gives a salt, the structure may show the parent alone. Some entries repeat one wording, which the source may state once for all of them.
Key:
[1] = test system: activated sludge community; assay: Aerobic biotransformation and defluorination of ether PFAS in activated sludge batch reactors; conditions: for parent compound removal / TFA formed from the compound / removal of compound: aerobic incubation; for aerobic biotransformation / defluorination: incubation ≤28 days, result in words
[2] = test system: activated sludge community; assay: Aerobic biological post-treatment of UV/sulfite effluent with activated sludge; conditions: for biotransformation of chemical treatment products: activated sludge, result in words
[3] = Internal recycle between the chemical and biological units; conditions: effluent of the biological unit returned to the chemical unit, result in words

## O=C(O)COC(F)(F)F [E1, 2-(trifluoromethoxy)acetic acid]
[1]; activated sludge
  parent compound removal: 40.9%
  aerobic biotransformation: aerobic biotransformation was observed
  defluorination: defluorination was observed

## O=C(O)C(F)OC(F)(F)F (stereo not drawn) [E2, 2-fluoro-2-(trifluoromethoxy)acetic acid]
[1]; activated sludge
  aerobic biotransformation: did not exhibit notable parent compound decay
  defluorination: did not exhibit notable parent compound decay or defluorination

## O=C(O)COC(F)(F)C(F)(F)F [E7, 2-(perfluoroethoxy)acetic acid]
[1]; activated sludge
  TFA formed from the compound: 37.2 µM
  removal of compound: 37.9 µM
  defluorination: defluorination was observed
[1]; activated sludge, end of incubation
  fluorine ions at the end of the incubation: approximately 67 μM

## O=C(O)C(F)(F)C(F)(F)C(F)(F)OC(F)(F)F [E9, 2,2,3,3,4,4-hexafluoro-4-(trifluoromethoxy)butanoic acid]
[1]; activated sludge
  aerobic biotransformation: did not show any biotransformation

## O=C(O)C(F)(OC(F)(F)C(F)(F)C(F)(F)F)C(F)(F)F (stereo not drawn) [E10, 2,3,3,3-tetrafluoro-2-(perfluoropropoxy)propanoic acid]
[1]; activated sludge
  aerobic biotransformation: did not show any biotransformation
[2]; time not stated
  additional defluorination / increase in total defluorination by aerobic biological post-treatment: about 20%

## O=C(O)CCC(F)(OC(F)(F)F)C(F)(F)F (stereo not drawn) [E11, 4,5,5,5-tetrafluoro-4-(trifluoromethoxy)pentanoic acid]
[1]; activated sludge
  parent compound removal: 8%
  aerobic biotransformation: exhibited biotransformation
  defluorination: exhibited biotransformation and defluorination

## O=C(O)/C=C/C(F)(OC(F)(F)F)C(F)(F)F (stereo not drawn) [E12, 4,5,5,5-tetrafluoro-4-(trifluoromethoxy)pent-2-enoic acid]
[1]; E12: conversion into TFA, TP273: further transformation of TP273
  fluoride formed, assigned to one pathway: 8 µM
[1]; activated sludge
  amount hydrated at the C═C bond forming TP273: 9 µM
  amount that underwent two defluorinating pathways: 11 µM
  fluorine ions released per molecule of removed compound: up to four
  TFA formed from the compound: about 2 μM
  parent compound removal: 80%
  removal of compound: 37 µM
  aerobic biotransformation: exhibited biotransformation
  defluorination: exhibited biotransformation and defluorination
[1]; within a week
  amount of removed compound that underwent hydrogenation forming E11: about 26 μM

## O=C(O)CC(F)(C(F)(F)F)C(F)(F)F [FTMePA, (CF3)2CFCH2COOH, reference compound]
[1]; activated sludge
  aerobic biotransformation: resistant to biotransformation
  defluorination: did not exhibit any defluorination

## O=C(O)C=CC(F)(C(F)(F)F)C(F)(F)F [FTMeUPA, (CF3)2CFCH═CHCOOH, reference compound]
[1]; activated sludge
  aerobic biotransformation: underwent only hydrogenation
  defluorination: did not exhibit any defluorination

## O=C(O)C(F)(F)F [TP142, trifluoroacetate]
[2]
  biotransformation of chemical treatment products: nondefluorinating biotransformation

## O=C(O)C(F)C(F)(F)F (stereo not drawn) [TP144, 2,3,3,3-tetrafluoropropanoic acid]
[3]
  fate during an internal recycle: converted and mineralized

## O=C(O)C(F)(F)C(F)(F)F [TP162, 2,2,3,3,3-pentafluoropropanoic acid]
[3]
  fate during an internal recycle: converted and mineralized

## sulfonated trifluoropropionate [TP206]
[2]
  biotransformation of chemical treatment products: nondefluorinating biotransformation

— patent US20250276924A1, “CHEMICAL AND BIOLOGICAL DEGRADATION OF ETHER PER- AND POLYFLUOROALKYL SUBSTANCES” (The Regents of the University of California, priority 2024, published 2025)
